Source: PubChem BioAssay AID504444 (National Center for Advancing Translational Sciences (NCATS), 2011)
“And” between values parts separate entries of the source, which are not always exact repeats. Identical values can stand only once. About 7,500 (2.1%) of roughly 360,000 compounds were called active. The inconclusive results got no clear call from the source; some entries with a clear call stand among them for comparison. Calls come from the whole dose curve; as a rule, active = well fitted inhibition curve with a large enough effect; inconclusive = small, poorly fitted or top-dose-only effect, or effect the other way; inactive = flat fitted curve, though single readings scatter. Potencies beside an inconclusive call are fits to weak or partial responses and may not hold up.

assay: Nrf2 qHTS screen for inhibitors; settings: A549 ARE-Fluc reporter, luciferase luminescence, 18-24 h; series mostly up to 46 µM; note: nearly all actives have a fitted effect of over 60% in size
Outline: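 Two sequential reads on A549 ARE_Fluc cells exposed to compound for 18-24 h: a CellTiter-Fluor fluorescence read for viability, then a luciferase luminescence read for Nrf2/ARE activity.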
Potency is the fitted concentration of half-maximal effect.

Question: With Cc1ccc(OCCCCn2ccnc2)c([N+](=O)[O-])c1 as the molecule, how does the Potency read?
Answer: The Potency was inconclusive: 25.9 µM [falling, partial curve, poor fit].

Question: For CCC(C(=O)N1CCN(C(=O)c2ccco2)CC1)n1sc2ccccc2c1=O (stereo unspecified), which Potency is on record?
Answer: The Potency was inconclusive: 20.6 µM [falling, partial curve, poor fit].

Question: For CC1(C)Cc2ccccc2C(NN=C2CCCC2)=N1, which Potency is on record?
Answer: Its Potency is inconclusive: 6.51 µM [falling, single point].

Question: With CN(c1ccc(C(=O)NCCc2ccccc2)cc1)S(C)(=O)=O as the molecule, how does the Potency read?
Answer: Its Potency is inconclusive: 2.59 µM [activator, full curve].

Question: With COc1ccc(NC(=O)c2c(-c3c(Cl)cccc3Cl)noc2C)cn1 as the molecule, how does the Potency read?
Answer: Its Potency is “inactive”.

Question: Which Potency does the source give for CCOC(=O)c1cnc(-c2ccccc2)nc1-c1ccccc1 here?
Answer: The Potency was inconclusive: 6.51 µM [activator, partial curve].

Question: With O=S(=O)(c1ccccc1)c1cnn(-c2ccccc2)c1-c1ccc(Cl)cc1 as the molecule, how does the Potency read?
Answer: The Potency was inconclusive: 29.1 µM [falling, single point].

Question: With CC(C)CCn1c(Cl)nc2c1c(=O)n(C)c(=O)n2C as the molecule, how does the Potency read?
Answer: The Potency was inconclusive: 9.2 µM [falling, partial curve].

Question: With COc1ccc(Br)c(C(=O)Nc2cc3c(cc2N2CCCC2)n(C)c(=O)c(=O)n3C)c1 as the molecule, how does the Potency read?
Answer: Its Potency is inconclusive: 29.1 µM [activator, single point].

Question: With CCn1c(=O)cc(SCC(=O)Nc2cccc(SC)c2)c2ccccc21 as the molecule, how does the Potency read?
Answer: Its Potency is active: 13 µM.

Question: Which Potency does the source give for Cc1ccc(-c2cc(C(=O)OCC(=O)c3ccccc3)c3cccc(Cl)c3n2)cc1 here?
Answer: Its Potency is inconclusive: 13 µM [activator, partial curve].

Question: Which Potency does the source give for O=C(Nc1sc2c(c1C(=O)O)CCCCC2)c1ccccc1 here?
Answer: The Potency was inconclusive: 29.1 µM [activator, single point].

Question: Which Potency does the source give for COc1ccc2nc(C)c3c(c2c1)OC(C(C)(Cl)Br)C3 (stereo unspecified) here?
Answer: Its Potency is inconclusive: 20.6 µM [falling, single point].

Question: Which Potency does the source give for COc1ccc(OC)c2sc(N3CCN(C(=O)c4ccc5ncsc5c4)CC3)nc12 here?
Answer: Its Potency is “inactive”.

Question: For CC1CN(S(=O)(=O)c2cccc(C(=O)N=c3sccn3C)c2)CC(C)O1 (stereo unspecified), which Potency is on record?
Answer: Its Potency is active: 11.6 µM.

Question: Which Potency does the source give for COc1cccc(CC(=O)Nc2ccc(F)c(S(=O)(=O)N3CCOCC3)c2)c1 here?
Answer: The Potency was inconclusive: 16.4 µM [falling, partial curve, poor fit].

Question: Which Potency does the source give for COc1ccc(C(=O)OCC(=O)Nc2ncc([N+](=O)[O-])s2)cc1OC here?
Answer: The Potency was “inactive”.

Question: Which Potency does the source give for COc1ccccc1OCC(=O)N/N=C/c1cccc2cccnc12 here?
Answer: Its Potency is inconclusive: 13 µM [falling, partial curve, poor fit].

Question: For COc1ccc(CCNC(=O)c2cc(=O)c3cc(C)cc(C)c3o2)cc1OC, which Potency is on record?
Answer: The Potency was inconclusive: 16.4 µM [falling, single point].

Question: With Cc1nnc(N2C(=O)C(O)=C(C(=O)c3ccco3)C2c2ccc(C(C)C)cc2)s1 (stereo unspecified) as the molecule, how does the Potency read?
Answer: Its Potency is “inactive”.

Question: Which Potency does the source give for COC(=O)CSc1nc2cc(Cl)ccc2c(=O)n1C1CCCC1 here?
Answer: The Potency was inconclusive: 7.31 µM [falling, partial curve, poor fit].

Question: For COc1ccc(CCNC(=O)Nc2cccc([N+](=O)[O-])c2)cc1, which Potency is on record?
Answer: Its Potency is inconclusive: 18.4 µM [falling, single point].

Question: For CN(CC1COc2ccccc2O1)C(=O)CSc1ncccn1 (stereo unspecified), which Potency is on record?
Answer: Its Potency is inconclusive: 29.1 µM [activator, single point].

Question: With CC1=NN(c2cccc(C(=O)O)c2)C(=O)/C1=C\C=C\c1ccco1 as the molecule, how does the Potency read?
Answer: The Potency was “inactive”.

Question: With CCOC(=O)C1=C(C)NC(=S)NC1c1ccc(-c2ccc(Cl)cc2)o1 (stereo unspecified) as the molecule, how does the Potency read?
Answer: The Potency was inconclusive: 29.1 µM [falling, single point].

Question: For Cc1ccc(NC(=O)Cn2c(-c3ccc4c(c3)OCO4)cn(-c3ccccc3)c2=O)cc1, which Potency is on record?
Answer: The Potency was inconclusive: 10.3 µM [activator, partial curve].

Question: For Cc1ccc2c(c1)c1c(c(=O)n(Cc3ccccc3)c(=O)n1CC(=O)Nc1ccccc1C)n2C, which Potency is on record?
Answer: Its Potency is inconclusive: 29.1 µM [activator, single point].

Question: With CCOCCCNC(=S)N1CCC(C(=O)c2ccc(C)cc2)CC1 as the molecule, how does the Potency read?
Answer: Its Potency is “inactive”.

Question: For O=C(O)C1C2C=CC(C3CC23)C1C(=O)O (stereo unspecified), which Potency is on record?
Answer: The Potency was inconclusive: 3.66 µM [activator, single point].

Question: For CCc1ccc(NC(=O)CSc2nc3ncc(Br)cc3[nH]2)cc1, which Potency is on record?
Answer: Its Potency is inconclusive: 32.6 µM [falling, partial curve, poor fit].

Question: For CCC(C(=O)Nc1cccc(C#N)c1)n1c(=O)c(-c2ccccc2NC(C)=O)nc2ccccc21 (stereo unspecified), which Potency is on record?
Answer: Its Potency is “inactive”.

Question: With Cc1ccc(Nc2nc(C(=O)NCc3ccco3)cs2)cc1 as the molecule, how does the Potency read?
Answer: The Potency was active: 9.2 µM.

Question: With Cc1cccc(Cn2c(SCCO)nc3c2c(=O)n(C)c(=O)n3C)c1 as the molecule, how does the Potency read?
Answer: The Potency was inconclusive: 20.6 µM [falling, single point].

Question: For Cc1ccc(C2SCC(=O)N2Cc2ccccc2)cc1 (stereo unspecified), which Potency is on record?
Answer: Its Potency is inconclusive: 11.6 µM [falling, partial curve, poor fit].

Question: Which Potency does the source give for Cc1cccc(-c2noc(CCC(=O)NCc3ccccc3)n2)c1 here?
Answer: Its Potency is inconclusive: 4.11 µM [falling, partial curve, poor fit].

Question: For Cn1c(=O)c2c(nc(CN3CCCCC3)n2Cc2c(F)cccc2Cl)n(C)c1=O, which Potency is on record?
Answer: The Potency was “inactive”.

Question: For O=C(Nc1ccccc1)c1ccc(-c2ccc(F)cc2)s1, which Potency is on record?
Answer: Its Potency is inconclusive: 1.03 µM [activator, full curve].

Question: Which Potency does the source give for COc1ccc(OC)c(NC(=O)CSc2nnc(C3CCCCC3)n2-c2ccccc2)c1 here?
Answer: The Potency was inconclusive: 9.2 µM [falling, partial curve].

Question: Which Potency does the source give for O=C(CSC1=NCCS1)Nc1ccccc1F here?
Answer: The Potency was inconclusive: 9.2 µM [activator, partial curve, poor fit].

Question: Which Potency does the source give for N/C(=N\OC(=O)CCC1CCCC1)c1ccccn1 here?
Answer: Its Potency is inconclusive: 13 µM [activator, partial curve, poor fit].

Question: Which Potency does the source give for Cc1ccc(CN2c3ccccc3S(=O)(=O)c3ccccc32)cc1 here?
Answer: The Potency was “inactive”.

Question: With CCOC(=O)CCC(NC(=O)CCCCCCCCC(=O)NC(CCC(=O)OCC)C(=O)OCC)C(=O)OCC (stereo unspecified) as the molecule, how does the Potency read?
Answer: Its Potency is inconclusive: 0.731 µM [activator, full curve, poor fit].

Question: For CN(Cc1ccccc1)CC(O)COc1ccc(CNCc2cc3ccccc3s2)cc1 (stereo unspecified), which Potency is on record?
Answer: Its Potency is inconclusive: 29.1 µM [falling, single point].

Question: Which Potency does the source give for CCCc1cc(=O)[nH]c(SCC(=O)CSc2nc(CCC)cc(=O)[nH]2)n1 here?
Answer: Its Potency is inconclusive: 16.4 µM [activator, partial curve, poor fit].

Question: For C=C(C)CN(CC)c1nc(N)c2c(N)nc3c(c2c1C#N)CC(=O)N3C12CC3CC(CC(C3)C1)C2, which Potency is on record?
Answer: The Potency was active: 13 µM.

Question: Which Potency does the source give for COc1cc(CN(C(=O)COc2ccc(C)c(C)c2)c2ccccn2)cc(OC)c1OC here?
Answer: Its Potency is inconclusive: 18.4 µM [falling, partial curve, poor fit].

Question: Which Potency does the source give for O=C(Nc1cc(C(F)(F)F)ccc1N1CCOCC1)c1ccc2ccccc2n1 here?
Answer: Its Potency is inconclusive: 25.9 µM [activator, single point].

Question: With CCOC(=O)c1c(C)[nH]c(C(=O)COC(=O)CNC(=O)c2ccc(Cl)cc2Cl)c1C as the molecule, how does the Potency read?
Answer: The Potency was inconclusive: 29.1 µM [activator, single point].

Question: Which Potency does the source give for COc1ccc(COC(=O)Nc2cn(C)nc2C(F)(F)F)cc1 here?
Answer: The Potency was “inactive”.

Question: Which Potency does the source give for Cc1cc(C(=O)N/N=C2/CC(C)CC(C)(C)C2)c(C)o1 (stereo unspecified) here?
Answer: Its Potency is inconclusive: 0.461 µM [activator, full curve, poor fit].

Question: For COc1cc2sc3cc(NCCCN4CCOCC4)ccc3c(=O)c2cc1OC, which Potency is on record?
Answer: Its Potency is “inactive”.

Question: For Nc1nc(SCc2ccc(Cl)cc2Cl)nc2nc3c(cc12)CCCC3, which Potency is on record?
Answer: Its Potency is active: 23.1 µM.

Question: Which Potency does the source give for NC(N)=N/N=C/c1ccc(Cl)c(Cl)c1 here?
Answer: Its Potency is “inactive”.

Question: For COc1cc(C(C)=O)ccc1Oc1cc(NN2CCCCC2)c([N+](=O)[O-])cc1[N+](=O)[O-], which Potency is on record?
Answer: Its Potency is inconclusive: 29.1 µM [falling, single point].

Question: For CCCN(CCC)CCNC(=O)c1cc2c(-c3ccccc3F)nn(C)c2s1, which Potency is on record?
Answer: Its Potency is inconclusive: 3.26 µM [activator, partial curve, poor fit] and inconclusive: 14.6 µM [activator, partial curve, poor fit].

Question: With CN(CC(=O)Nc1cccc(F)c1)C(=O)CCc1nc2sc3c(c2c(=O)[nH]1)CCCC3 as the molecule, how does the Potency read?
Answer: Its Potency is inconclusive: 18.4 µM [falling, single point].

Question: With COc1cc(NC(=O)c2cnn(-c3cccc(F)c3)c2C2CCNCC2)cc(OC)c1OC as the molecule, how does the Potency read?
Answer: Its Potency is inconclusive: 29.1 µM [activator, single point].

Question: With COc1cc(NC(=O)c2ccc3c(c2)OCCO3)ccc1NC(=O)c1cccs1 as the molecule, how does the Potency read?
Answer: Its Potency is inconclusive: 20.6 µM [falling, single point].

Question: Which Potency does the source give for CCCSc1nc(C)c(-c2csc(C(C#N)=C3CCCC3)n2)cc1C#N here?
Answer: Its Potency is inconclusive: 7.31 µM [activator, partial curve].

Question: With Cc1ccc(S(=O)(=O)CCSc2nc(C)cc(C)c2C#N)cc1 as the molecule, how does the Potency read?
Answer: The Potency was active: 20.6 µM.

Question: With O=C(NCCN1CCOCC1)c1ccc(/C=C2\Sc3ccccc3N(Cc3ccc(F)cc3)C2=O)cc1 as the molecule, how does the Potency read?
Answer: The Potency was inconclusive: 20.6 µM [falling, partial curve, poor fit].

Question: For Cc1ccc(C(=O)Nc2ccncc2)c(Cl)c1, which Potency is on record?
Answer: The Potency was inconclusive: 0.146 µM [falling, full curve, poor fit].

Question: Which Potency does the source give for COc1cc(N=Nc2ccccc2C(=O)O)ccc1O here?
Answer: The Potency was inconclusive: 10.3 µM [falling, partial curve, poor fit].

Question: Which Potency does the source give for c1ccc(CSCc2cn3ccccc3n2)cc1 here?
Answer: The Potency was inconclusive: 3.66 µM [activator, full curve].

Question: Which Potency does the source give for CCOC(=O)CN1C(=O)S/C(=C/C=C/c2ccc(N(C)C)cc2)C1=O here?
Answer: Its Potency is inconclusive: 6.51 µM [activator, partial curve].

Question: For O=C1/C(=C/c2ccc(O)c(O)c2)SC(=S)N1Nc1ccccc1, which Potency is on record?
Answer: Its Potency is “inactive”.
